# Results as given in patent publication EP0311632B1, “SURFACE ACTIVE LACTAMS” (priority 1986, dated 1988).
# Assay: Anti-corrosion testing in hydrochloric acid
# Settings: 0.4 g test compound in 100 mls 15% hydrochloric acid, 80°C, 16 hours
row,Structure (SMILES),Weight Loss [%]
1,"O=C1CCCN1C1CCCCC1 [N-cyclohexyl pyrrolidone, reference compound]",10.97
2,CCCCCCCCCCN1CCCC1=O [N-decyl-2-pyrrolidone],4.10
3,CCCCCCCCCCCCN1CCCC1=O [N-dodecyl-2-pyrrolidone],5.95
4,CCN1CCCC1=O [N-ethyl pyrrolidone],14.56
5,O=C1CCCN1CCO [N-hydroxyethyl pyrrolidone],15.57
6,COCCN1CCCC1=O [N-methoxyethyl pyrrolidone],14.16
7,CN1CCCC1=O [N-methyl pyrrolidone],14.55
8,CCCCCCCCN1CCCC1=O [N-octyl-2-pyrrolidone],4.20
9,CCCCCCCCCCCCCCN1CCCC1=O [N-tetradecyl-2-pyrrolidone],14.82
10,C#CCO [Propargyl alcohol],0.21

# Same assay, conditions: 5% HCl solution, 16 hours; interpolation of curve of Figure 1
row,Structure (SMILES),corrosion inhibition (% weight loss curve)
1,CCCCCCCCCN1CCCC1=O [N-nonyl-2-pyrrolidone],at least as effective as the N-octyl or the N-decyl species
